Measured values reported in patent publication US20230201124A1, “LUBRICANT FOR PHARMACEUTICALS AND NUTRACEUTICALS” (JRS Pharma GmbH & Co. KG, priority 2021, published 2023).
Some of these results come from one statement about several compounds together.

Experiment: Tablet hardness versus compression force of lubricated tablets
Format: physicochemical
Conditions: Example 8: 15 kN compaction force; 0.125%/5 min versus 1.0%/60 min, FIG. 19
Procedure: Blends consisting of five separate levels of each lubricant type were prepared, with the lubricant blending time set for up to 60 minutes. After the addition of lubricant to the ibuprofen-MCC premix and the initiation of blending, a portion of each blend (enough to make a representative number of tablets) was withdrawn at each of 5 intervals (5, 15, 30, 45 and 60 minutes). […]
Tablet hardnesses and ejection forces were measure for each variant.

CCCCCCCCCCCCCCCCCCOC(=O)/C=C/C(=O)[O-].[Na+] [Pruv®, sodium stearyl fumarate]
drop in tablet hardness: 2-4 N
